These results are taken from the supplement of paper PMC11006884.

The list shows a part of the results, in another mix than the full data.

Compound in this test: COC(=O)C#Cc1ccccc1 [methyl 3-phenylpropiolate]
As to the kind of experiment: log2 ratio of iodoacetamide-alkyne labeling of the cysteine site, DMSO over compound (competition); higher = stronger covalent engagement of the cysteine by the compound, active = 1 or more. The note with it: 500 µM; treatment time 1 h; system: HEK293T cell lysate. In short, it runs like this: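 Reporter intensities give each cysteine's log2 competition ratio as the mean of control channels over the mean of compound channels. The samples were HEK293T lysate (2 mg/mL) given vehicle or electrophile (500 µM, 1 h, ambient temperature), then iodoacetamide alkyne (1 h), followed by click coupling to sCIP-TMT reagents, pooling, trypsin digestion overnight at 37 °C, streptavidin enrichment, acid elution, Orbitrap Eclipse LC-MS/MS with FAIMS and FragPipe quantification. Duplicate channels and three replicates were run, and cysteines quantified in only one replicate were discarded.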
Take KANK1 C781 (UniProt Q14678): the “log2 ratio of iodoacetamide-alkyne labeling” value (“log2 ratio” below) is inactive: 0.231.

With UniProt Q14004_C701, the “log2 ratio” value was inactive: 0.296.

With CKAP5 C1113 (UniProt Q14008), the “log2 ratio” value is inactive: 0.0583.

For NCAPH C255 (UniProt Q15003), the “log2 ratio” value was inactive: -0.0399.

As for DIP2A C6 (UniProt Q14689), the “log2 ratio” value is active: 1.75.

Consider TRA2A C120 (UniProt Q13595), for which the “log2 ratio” value is inactive: -0.000214.

For PIN1 C113 (UniProt Q13526), the “log2 ratio” value is inactive: 0.0305.

On to DCTN1 C1252 (UniProt Q14203), for which the “log2 ratio” value was inactive: 0.704.

For the target CKAP5 C1500 (UniProt Q14008), the “log2 ratio” value was inactive: 0.292.

With CKAP5 C1026 (UniProt Q14008), the “log2 ratio” value is inactive: 0.17.

Consider KPNB1 C455 (UniProt Q14974), for which the “log2 ratio” value is inactive: 0.582.

Take NUMA1 C803 (UniProt Q14980): the “log2 ratio” value was inactive: 0.588.

For ZNF638 C879 (UniProt Q14966), the “log2 ratio” value is inactive: 0.109.

With SQSTM1 C331 (UniProt Q13501), the “log2 ratio” value is inactive: 0.0188.

Consider GAPVD1 C1160 (UniProt Q14C86), for which the “log2 ratio” value was inactive: 0.00707.

On to RRP1B C286 (UniProt Q14684), for which the “log2 ratio” value was inactive: 0.229.

Consider GAPVD1 C1220 (UniProt Q14C86), for which the “log2 ratio” value was inactive: 0.244.

In the case of SMC1A C987 (UniProt Q14683), the “log2 ratio” value was inactive: 0.473.

NUMA1 C961 (UniProt Q14980): the “log2 ratio” value was active: 1.55.

DYNC1H1 C2594 (UniProt Q14204): the “log2 ratio” value is inactive: 0.0682.

Take FKBP8 C227 (UniProt Q14318): the “log2 ratio” value is inactive: 0.165.

Regarding FKBP8 C295 (UniProt Q14318), the “log2 ratio” value was inactive: -0.104.

Consider ITPR3 C1638 (UniProt Q14573), for which the “log2 ratio” value is inactive: 0.747.

KPNB1 C158 (UniProt Q14974): the “log2 ratio” value is inactive: 0.282.

DIP2A C252 (UniProt Q14689): the “log2 ratio” value was inactive: 0.649.

Regarding DYNC1H1 C1999 (UniProt Q14204), the “log2 ratio” value was inactive: 0.449.

With CKAP5 C1911 (UniProt Q14008), the “log2 ratio” value was inactive: 0.35.

Turning to NCAPH C316 (UniProt Q15003), the “log2 ratio” value was inactive: -0.0371.

As for USP10 C254 (UniProt Q14694), the “log2 ratio” value is inactive: 0.49.

Take SQSTM1 C26 (UniProt Q13501): the “log2 ratio” value is inactive: 0.699.

Consider NCAPH C239 (UniProt Q15003), for which the “log2 ratio” value was inactive: 0.37.

In the case of GALE C196 (UniProt Q14376), the “log2 ratio” value is inactive: 0.152.

As for SPTAN1 C315 (UniProt Q13813), the “log2 ratio” value was inactive: -0.0382.

Take CUL3 C636 (UniProt Q13618): the “log2 ratio” value is inactive: 0.464.

Take SQSTM1 C113 (UniProt Q13501): the “log2 ratio” value was active: 1.2.

Regarding TTLL12 C370 (UniProt Q14166), the “log2 ratio” value was inactive: -0.154.

On to TTLL12 C642 (UniProt Q14166), for which the “log2 ratio” value is inactive: 0.0501.
